Source: PMC5998130
No constants are given. Whether binding was seen depends on the method and setting. In cells and extracts the contact can be indirect. Some entries that bind do so weakly or less than the wild type.

Chains of the proteins cited; added tags and fusions are not shown.
UniProt Q13185: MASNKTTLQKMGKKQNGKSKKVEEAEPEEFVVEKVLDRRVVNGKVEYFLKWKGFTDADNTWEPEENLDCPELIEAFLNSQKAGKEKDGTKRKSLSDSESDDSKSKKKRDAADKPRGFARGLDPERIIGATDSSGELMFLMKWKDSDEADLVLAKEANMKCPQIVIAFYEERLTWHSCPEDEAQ
UniProt Q6KC79: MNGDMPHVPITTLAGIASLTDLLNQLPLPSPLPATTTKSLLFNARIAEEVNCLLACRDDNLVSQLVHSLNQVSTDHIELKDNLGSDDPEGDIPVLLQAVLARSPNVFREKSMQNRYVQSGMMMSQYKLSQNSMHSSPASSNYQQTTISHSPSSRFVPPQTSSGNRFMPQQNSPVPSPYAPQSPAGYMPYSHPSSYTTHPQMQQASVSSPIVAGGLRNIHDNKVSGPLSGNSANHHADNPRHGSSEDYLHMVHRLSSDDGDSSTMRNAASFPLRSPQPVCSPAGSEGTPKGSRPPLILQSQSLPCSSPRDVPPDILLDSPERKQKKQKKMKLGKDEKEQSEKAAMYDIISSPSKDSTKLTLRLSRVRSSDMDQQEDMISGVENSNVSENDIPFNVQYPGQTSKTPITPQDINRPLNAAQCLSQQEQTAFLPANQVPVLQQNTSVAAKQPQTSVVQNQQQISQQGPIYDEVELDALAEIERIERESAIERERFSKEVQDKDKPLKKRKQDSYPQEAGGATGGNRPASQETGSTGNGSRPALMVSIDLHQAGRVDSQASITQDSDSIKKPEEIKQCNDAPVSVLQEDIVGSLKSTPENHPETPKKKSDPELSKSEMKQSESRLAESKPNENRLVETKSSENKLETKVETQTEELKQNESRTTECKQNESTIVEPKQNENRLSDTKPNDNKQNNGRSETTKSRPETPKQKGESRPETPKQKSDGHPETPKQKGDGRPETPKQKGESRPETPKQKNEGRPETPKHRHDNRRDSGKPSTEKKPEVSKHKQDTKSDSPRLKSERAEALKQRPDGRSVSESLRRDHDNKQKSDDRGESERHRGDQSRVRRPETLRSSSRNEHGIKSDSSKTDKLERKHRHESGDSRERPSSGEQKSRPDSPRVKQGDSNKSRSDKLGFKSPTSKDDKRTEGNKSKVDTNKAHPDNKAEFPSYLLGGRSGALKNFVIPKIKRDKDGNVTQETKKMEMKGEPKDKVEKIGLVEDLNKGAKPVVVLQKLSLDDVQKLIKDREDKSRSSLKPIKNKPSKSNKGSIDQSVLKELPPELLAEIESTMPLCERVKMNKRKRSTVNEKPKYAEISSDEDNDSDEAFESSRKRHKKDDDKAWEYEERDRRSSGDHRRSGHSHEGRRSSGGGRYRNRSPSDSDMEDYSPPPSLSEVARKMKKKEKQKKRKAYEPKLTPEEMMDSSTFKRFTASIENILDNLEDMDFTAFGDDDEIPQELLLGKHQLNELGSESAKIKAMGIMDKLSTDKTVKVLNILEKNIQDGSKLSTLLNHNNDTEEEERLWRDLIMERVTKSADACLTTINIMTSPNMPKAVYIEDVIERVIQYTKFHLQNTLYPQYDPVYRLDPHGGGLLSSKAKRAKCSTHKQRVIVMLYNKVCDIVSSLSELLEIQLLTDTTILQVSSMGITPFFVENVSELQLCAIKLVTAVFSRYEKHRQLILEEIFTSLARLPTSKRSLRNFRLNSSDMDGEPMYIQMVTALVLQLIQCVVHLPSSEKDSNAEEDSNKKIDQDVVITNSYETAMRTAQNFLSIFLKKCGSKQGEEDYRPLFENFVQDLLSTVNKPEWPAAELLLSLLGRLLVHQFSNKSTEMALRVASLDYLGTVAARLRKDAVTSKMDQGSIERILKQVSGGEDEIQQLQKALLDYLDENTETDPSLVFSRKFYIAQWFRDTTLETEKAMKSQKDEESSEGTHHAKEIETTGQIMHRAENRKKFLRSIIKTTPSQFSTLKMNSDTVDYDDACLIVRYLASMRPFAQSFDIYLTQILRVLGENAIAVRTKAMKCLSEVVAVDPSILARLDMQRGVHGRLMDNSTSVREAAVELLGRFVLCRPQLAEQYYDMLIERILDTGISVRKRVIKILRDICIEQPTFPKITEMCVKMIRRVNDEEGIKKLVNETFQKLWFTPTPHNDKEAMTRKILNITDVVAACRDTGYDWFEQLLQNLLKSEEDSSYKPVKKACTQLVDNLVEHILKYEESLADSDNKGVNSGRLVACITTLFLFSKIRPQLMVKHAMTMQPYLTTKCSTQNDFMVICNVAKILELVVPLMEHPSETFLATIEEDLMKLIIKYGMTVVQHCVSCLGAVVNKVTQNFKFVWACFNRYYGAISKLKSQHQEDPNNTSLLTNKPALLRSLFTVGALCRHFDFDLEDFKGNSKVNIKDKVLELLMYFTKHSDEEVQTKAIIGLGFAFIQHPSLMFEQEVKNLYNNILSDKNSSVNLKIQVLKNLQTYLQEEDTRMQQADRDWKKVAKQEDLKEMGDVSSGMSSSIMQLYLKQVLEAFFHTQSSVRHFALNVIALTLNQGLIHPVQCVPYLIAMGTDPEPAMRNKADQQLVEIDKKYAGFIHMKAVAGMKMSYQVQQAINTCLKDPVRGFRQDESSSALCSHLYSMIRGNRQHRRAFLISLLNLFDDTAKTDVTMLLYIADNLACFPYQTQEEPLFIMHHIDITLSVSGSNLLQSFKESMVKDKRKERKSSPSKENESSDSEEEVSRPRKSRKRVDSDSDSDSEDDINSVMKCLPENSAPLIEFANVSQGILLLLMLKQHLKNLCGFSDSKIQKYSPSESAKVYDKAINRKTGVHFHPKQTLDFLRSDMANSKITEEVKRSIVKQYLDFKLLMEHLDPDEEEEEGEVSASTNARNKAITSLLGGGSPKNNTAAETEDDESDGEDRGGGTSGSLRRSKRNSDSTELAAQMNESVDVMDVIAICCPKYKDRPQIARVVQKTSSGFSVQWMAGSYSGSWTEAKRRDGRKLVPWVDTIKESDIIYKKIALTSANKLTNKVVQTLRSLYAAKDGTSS
UniProt Q92793: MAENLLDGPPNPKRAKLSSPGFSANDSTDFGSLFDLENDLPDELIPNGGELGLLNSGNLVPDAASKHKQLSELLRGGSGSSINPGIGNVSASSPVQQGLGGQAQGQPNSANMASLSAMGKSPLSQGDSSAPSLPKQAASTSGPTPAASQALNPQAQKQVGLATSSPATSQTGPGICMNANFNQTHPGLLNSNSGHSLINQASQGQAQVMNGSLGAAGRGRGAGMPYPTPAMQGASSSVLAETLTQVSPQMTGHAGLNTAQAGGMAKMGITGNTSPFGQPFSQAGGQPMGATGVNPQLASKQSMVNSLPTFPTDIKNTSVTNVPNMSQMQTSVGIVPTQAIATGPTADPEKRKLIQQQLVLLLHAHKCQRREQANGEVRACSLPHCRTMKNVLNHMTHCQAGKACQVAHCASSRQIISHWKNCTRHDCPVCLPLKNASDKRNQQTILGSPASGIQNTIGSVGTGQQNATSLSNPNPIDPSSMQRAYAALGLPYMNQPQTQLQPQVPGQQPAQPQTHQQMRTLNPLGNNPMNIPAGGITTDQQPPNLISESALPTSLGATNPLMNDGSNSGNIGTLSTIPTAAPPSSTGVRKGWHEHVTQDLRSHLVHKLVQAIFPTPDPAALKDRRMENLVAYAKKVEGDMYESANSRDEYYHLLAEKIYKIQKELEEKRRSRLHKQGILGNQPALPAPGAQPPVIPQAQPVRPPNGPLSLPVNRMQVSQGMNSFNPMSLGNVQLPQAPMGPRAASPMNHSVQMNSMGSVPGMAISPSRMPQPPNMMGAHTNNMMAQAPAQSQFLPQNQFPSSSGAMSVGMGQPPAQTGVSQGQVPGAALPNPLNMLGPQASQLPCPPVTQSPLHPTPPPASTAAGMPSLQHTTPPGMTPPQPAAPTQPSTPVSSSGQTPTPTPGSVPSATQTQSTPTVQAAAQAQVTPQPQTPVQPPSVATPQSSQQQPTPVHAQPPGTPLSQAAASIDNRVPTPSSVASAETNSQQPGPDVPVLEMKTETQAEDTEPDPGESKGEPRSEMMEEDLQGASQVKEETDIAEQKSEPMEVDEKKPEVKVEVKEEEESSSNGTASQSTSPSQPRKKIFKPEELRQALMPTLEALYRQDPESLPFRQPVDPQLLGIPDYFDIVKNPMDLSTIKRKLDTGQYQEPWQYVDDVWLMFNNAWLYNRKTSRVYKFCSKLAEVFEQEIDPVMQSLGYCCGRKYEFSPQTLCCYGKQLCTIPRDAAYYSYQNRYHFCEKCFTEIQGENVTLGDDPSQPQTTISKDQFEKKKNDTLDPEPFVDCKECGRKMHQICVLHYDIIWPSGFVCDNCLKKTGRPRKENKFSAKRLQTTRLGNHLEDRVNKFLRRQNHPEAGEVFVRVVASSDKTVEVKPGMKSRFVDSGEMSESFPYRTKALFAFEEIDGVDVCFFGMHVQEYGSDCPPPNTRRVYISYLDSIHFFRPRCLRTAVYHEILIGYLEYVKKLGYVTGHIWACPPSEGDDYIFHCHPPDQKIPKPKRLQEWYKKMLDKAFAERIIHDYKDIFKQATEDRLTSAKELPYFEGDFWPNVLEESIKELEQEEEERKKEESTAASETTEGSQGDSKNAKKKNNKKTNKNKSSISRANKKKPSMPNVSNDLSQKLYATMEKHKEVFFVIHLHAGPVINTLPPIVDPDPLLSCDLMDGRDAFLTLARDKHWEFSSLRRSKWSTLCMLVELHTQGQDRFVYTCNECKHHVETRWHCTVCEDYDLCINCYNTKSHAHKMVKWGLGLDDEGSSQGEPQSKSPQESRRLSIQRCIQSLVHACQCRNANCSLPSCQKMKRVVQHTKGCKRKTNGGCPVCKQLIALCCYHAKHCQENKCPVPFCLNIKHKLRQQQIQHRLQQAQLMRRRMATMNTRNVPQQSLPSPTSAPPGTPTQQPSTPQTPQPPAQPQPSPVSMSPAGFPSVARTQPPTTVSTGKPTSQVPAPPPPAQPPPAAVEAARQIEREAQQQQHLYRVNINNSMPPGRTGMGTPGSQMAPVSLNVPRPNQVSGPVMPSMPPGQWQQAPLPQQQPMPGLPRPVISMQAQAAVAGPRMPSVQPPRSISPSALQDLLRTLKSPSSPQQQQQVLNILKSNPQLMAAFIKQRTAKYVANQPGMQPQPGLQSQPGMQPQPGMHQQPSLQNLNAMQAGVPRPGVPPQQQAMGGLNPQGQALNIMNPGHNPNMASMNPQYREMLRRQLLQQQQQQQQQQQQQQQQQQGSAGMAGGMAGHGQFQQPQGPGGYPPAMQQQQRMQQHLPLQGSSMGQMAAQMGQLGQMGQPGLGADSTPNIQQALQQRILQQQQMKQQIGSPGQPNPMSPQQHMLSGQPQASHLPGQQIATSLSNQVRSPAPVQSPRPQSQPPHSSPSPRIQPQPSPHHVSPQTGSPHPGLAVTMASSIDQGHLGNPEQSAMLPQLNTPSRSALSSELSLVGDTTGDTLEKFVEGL

Target: Estrogen Receptor alpha (ERα) (human (endogenous in MCF7, human PDX tumours and human breast tumours)) (UniProt P03372)
Assay: proximity ligation; PLA in methanol-fixed MCF7 cells with primary antibodies against ERα and the partner; untreated cells, and cells treated with vehicle or 100 nM OHT (2 h, 6 h)

Question: CBX3 (HP1γ) (from UniProt Q13185 1-183) was tested. Which binding did it give?
Answer: binds

Question: With “SMARCC2 (BAF170) (from UniProt Q8TAQ2 1-1214)” as the substance, how does the binding read?
Answer: binds

Question: Which binding does the source give for NIPBL (from UniProt Q6KC79 1-2804) here?
Answer: binds

Question: Which binding does the source give for “CBP (CREB-binding protein) (from UniProt Q92793 1-2442)” here?
Answer: binds
